Data published in patent US20240352100A1 (AJOU UNIVERSITY INDUSTRY ACADEMIC COOPERATION FOUNDATION, published 2024).

Target: IL-4R
Experiment: ELISA: antibody coated at 5 µg/ml, soluble IL-4R 1 µM as control antigen, A450

binding: no binding (tested: 1 µM)
B1: inBC2 (antibody, V domains shown)
VH: QVQLVESGGGVVQPGRSLRLSCAASGFTFSSYPMHWVRQAPGKGLEWVAVVSYDGSYKYYADSVKGRLTISRDNSKNTLYLQMNSLRAEDTAVYYCARATVRGVTKIRGVFDSWGQGTLVTVSS
VL: DYQLTQSPSSLSASVGDRVTITCKSSQSLLNSRDGKNYLAWYQQKPGKAPKMLIYWASTRESGVPSRFSGSGSGTDFTLTISSLQPEDFATYFCQQYWYWMFTFGQGTKVEIKR
notes: Complete immunoglobulin; FR4 back-mutated form of inBC0; also called anti-β-catenin cytosol-penetrating interfering antibody inBC2; anti-β-catenin iMab

No constants are given. Whether binding was seen depends on the method and setting.
